The source of these data is the supplement of paper PMC9233669.

One data set deals with biotinyl-Trp-oxazolone. Kind of data set: self-aminoacylation, catalytic enhancement (BWO) (fold over background); higher = more active; k-Seq, kA / k0A0; sequences stand for … in GGGAAUGGAUCCACAUCUACGAAUUC…UUCACUGCAGACUUGACGAAGCUG
The gist of the method:
(§1)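 Working in 50 μL HEPES/NaCl/KCl/MgCl2/CaCl2 buffer with 5% acetonitrile at pH 6.9–7.0, mutagenized RNA pools (0.43 μM; 21-nt variable region) were reacted with 2–1250 μM of each biotinyl-aminoacyl-oxazolone for 90 minutes at room temperature. Streptavidin capture followed, with quantification by triplicate qPCR and Illumina sequencing. Catalytic enhancement is reported as median kA over the uncatalyzed rate, the low-activity peak of a bimodal Gaussian fit to the data.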

The subject of the next data set is biotinyl-Leu-oxazolone. In words: self-aminoacylation, catalytic enhancement (BLO) (fold over background); higher = more active; k-Seq, kA / k0A0; sequences stand for … in GGGAAUGGAUCCACAUCUACGAAUUC…UUCACUGCAGACUUGACGAAGCUG
The gist of the method:
as §1

Another data set concerns biotinyl-Val-oxazolone. In words: self-aminoacylation, catalytic enhancement (BVO) (fold over background); higher = more active; k-Seq, kA / k0A0; sequences stand for … in GGGAAUGGAUCCACAUCUACGAAUUC…UUCACUGCAGACUUGACGAAGCUG
The gist of the method:
as §1

The next data set deals with biotinyl-Met-oxazolone. Kind of data set: self-aminoacylation, catalytic enhancement (BMO) (fold over background); higher = more active; k-Seq, kA / k0A0; sequences stand for … in GGGAAUGGAUCCACAUCUACGAAUUC…UUCACUGCAGACUUGACGAAGCUG
The gist of the method:
as §1

A further data set concerns biotinyl-Phe-oxazolone. Kind of data set: self-aminoacylation, catalytic enhancement (BFO) (fold over background); higher = more active; k-Seq, kA / k0A0; sequences stand for … in GGGAAUGGAUCCACAUCUACGAAUUC…UUCACUGCAGACUUGACGAAGCUG
The gist of the method:
as §1

The next data set concerns biotinyl-Ile-oxazolone. Kind of data set: self-aminoacylation, catalytic enhancement (BIO) (fold over background); higher = more active; k-Seq, kA / k0A0; sequences stand for … in GGGAAUGGAUCCACAUCUACGAAUUC…UUCACUGCAGACUUGACGAAGCUG
The gist of the method:
as §1

Variants at the floor of the assay are shown more often than the library holds them.

With “AUUACCCUGGUCAUCGACUAA [Fam2.1 aminoacylation ribozyme variant]”, the self-aminoacylation with biotinyl-Trp-oxazolone came out at 0.924; in the data set with biotinyl-Leu-oxazolone it was 0.975; with biotinyl-Val-oxazolone it was 0.782; in the data set on biotinyl-Met-oxazolone, 0.713; in the data set on biotinyl-Phe-oxazolone, 0.642; in the data set with biotinyl-Ile-oxazolone, 0.759.
Turning to “CCACACUUCAACCAAUCGAUC [Fam1B.1 aminoacylation ribozyme variant]”, the self-aminoacylation with biotinyl-Trp-oxazolone is 0.73; in the data set with biotinyl-Leu-oxazolone, 0.445; in the data set on biotinyl-Val-oxazolone, 0.602; with biotinyl-Met-oxazolone it was 0.384; with biotinyl-Phe-oxazolone it was 1.83; in the data set with biotinyl-Ile-oxazolone it was 0.579.
Turning to “AUUACACUGGUCAUCGAGAGA [Fam2.1 aminoacylation ribozyme variant]”, the self-aminoacylation with biotinyl-Trp-oxazolone came to 1.01; with biotinyl-Leu-oxazolone, 1.13; in the data set with biotinyl-Val-oxazolone, 1.3; in the data set on biotinyl-Met-oxazolone it was 0.855; in the data set on biotinyl-Phe-oxazolone it was 0.54; in the data set with biotinyl-Ile-oxazolone, 1.06.
Consider “AUUCACCUAGAUCAUCGGGUC [Fam2.2 aminoacylation ribozyme variant]”, for which the self-aminoacylation in the data set on biotinyl-Trp-oxazolone stood at 0.676; with biotinyl-Leu-oxazolone, 0.742; in the data set with biotinyl-Val-oxazolone, 0.844; with biotinyl-Met-oxazolone, 0.839; in the data set on biotinyl-Phe-oxazolone, 0.334; in the data set on biotinyl-Ile-oxazolone, 0.889.
Take “CUACUUCGAACAAUCAGUCUG [Fam1A.1 aminoacylation ribozyme variant]”: the self-aminoacylation was found to be 0.331 in the data set on biotinyl-Trp-oxazolone; 0.464 in the data set on biotinyl-Leu-oxazolone; 0.453 in the data set with biotinyl-Val-oxazolone; 0.476 with biotinyl-Met-oxazolone; 0.545 in the data set with biotinyl-Phe-oxazolone; 0.562 in the data set on biotinyl-Ile-oxazolone.
Regarding “GAGUUUGCUAAUAGUUGCAAG [Fam3.1 aminoacylation ribozyme variant]”, the self-aminoacylation in the data set on biotinyl-Trp-oxazolone stood at 1.26; in the data set on biotinyl-Leu-oxazolone, 1.03; in the data set on biotinyl-Val-oxazolone, 0.89; with biotinyl-Met-oxazolone it was 1.01; with biotinyl-Phe-oxazolone it was 1.71; in the data set with biotinyl-Ile-oxazolone it was 1.1.
With “AAGUGUGCUAAUAGACGCAAG [Fam3.1 aminoacylation ribozyme variant]”, the self-aminoacylation was 0.701 in the data set on biotinyl-Trp-oxazolone; 0.504 in the data set on biotinyl-Leu-oxazolone; 0.721 in the data set with biotinyl-Val-oxazolone; 0.553 with biotinyl-Met-oxazolone; 1.03 with biotinyl-Phe-oxazolone; 0.745 in the data set on biotinyl-Ile-oxazolone.
With “AUGGUUGCUAAUAGUCGCAAG [Fam3.1 aminoacylation ribozyme variant]”, the self-aminoacylation with biotinyl-Trp-oxazolone is 1.53; in the data set with biotinyl-Leu-oxazolone it was 1.3; with biotinyl-Val-oxazolone, 1.44; in the data set on biotinyl-Met-oxazolone, 1.02; in the data set on biotinyl-Phe-oxazolone, 1.79; in the data set with biotinyl-Ile-oxazolone, 1.43.
Consider “AUUCACCUGGAUCAUCGGGUG [Fam2.2 aminoacylation ribozyme variant]”, for which the self-aminoacylation in the data set with biotinyl-Trp-oxazolone was determined as 3.31; in the data set on biotinyl-Leu-oxazolone, 3.12; in the data set on biotinyl-Val-oxazolone it was 3.08; in the data set on biotinyl-Met-oxazolone, 2.39; with biotinyl-Phe-oxazolone, 15.1; in the data set with biotinyl-Ile-oxazolone, 2.55.
Turning to “AUUACCGUGGUCAACGAGUGA [Fam2.1 aminoacylation ribozyme variant]”, the self-aminoacylation was 9.2 in the data set on biotinyl-Trp-oxazolone; 7.25 in the data set with biotinyl-Leu-oxazolone; 4.21 with biotinyl-Val-oxazolone; 6.41 in the data set on biotinyl-Met-oxazolone; 36.7 with biotinyl-Phe-oxazolone; 3.61 in the data set with biotinyl-Ile-oxazolone.
With “CUACUUCAAACAAUAGGUAUG [Fam1A.1 aminoacylation ribozyme variant]”, the self-aminoacylation amounted to 0.43 in the data set on biotinyl-Trp-oxazolone; 0.601 in the data set with biotinyl-Leu-oxazolone; 0.659 in the data set on biotinyl-Val-oxazolone; 0.805 in the data set with biotinyl-Met-oxazolone; 1.05 in the data set with biotinyl-Phe-oxazolone; 0.65 in the data set with biotinyl-Ile-oxazolone.
In the case of “AUUCCCCUGGUAAUCGAGUGA [Fam2.1 aminoacylation ribozyme variant]”, the self-aminoacylation in the data set with biotinyl-Trp-oxazolone was 7.35; in the data set with biotinyl-Leu-oxazolone it was 5.9; in the data set with biotinyl-Val-oxazolone, 3.28; in the data set with biotinyl-Met-oxazolone it was 6.36; in the data set on biotinyl-Phe-oxazolone it was 37.7; with biotinyl-Ile-oxazolone, 3.09.
As to “AUUACCCUGGUCAUCGAGAGC [Fam2.1 aminoacylation ribozyme variant]”, the self-aminoacylation worked out at 0.61 in the data set with biotinyl-Trp-oxazolone; 0.791 with biotinyl-Leu-oxazolone; 0.834 in the data set with biotinyl-Val-oxazolone; 0.723 in the data set with biotinyl-Met-oxazolone; 1.03 in the data set on biotinyl-Phe-oxazolone; 0.723 in the data set on biotinyl-Ile-oxazolone.
Turning to “AAGUUUGCUAAGAGUCACAAG [Fam3.1 aminoacylation ribozyme variant]”, the self-aminoacylation is 0.964 with biotinyl-Trp-oxazolone; 0.794 in the data set on biotinyl-Leu-oxazolone; 0.938 in the data set with biotinyl-Val-oxazolone; 0.953 with biotinyl-Met-oxazolone; 1.73 in the data set with biotinyl-Phe-oxazolone; 1.03 in the data set on biotinyl-Ile-oxazolone.
Take “CUACGUCAGACAAUCGGUCUG [Fam1A.1 aminoacylation ribozyme variant]”: the self-aminoacylation in the data set with biotinyl-Trp-oxazolone turned out to be 0.99; in the data set with biotinyl-Leu-oxazolone, 1.28; in the data set with biotinyl-Val-oxazolone, 1.42; with biotinyl-Met-oxazolone it was 1.86; in the data set with biotinyl-Phe-oxazolone, 1.67; with biotinyl-Ile-oxazolone it was 1.61.
With “AAGUUUGCUAAUGGUCGUAAG [Fam3.1 aminoacylation ribozyme variant]”, the self-aminoacylation in the data set with biotinyl-Trp-oxazolone was found to be 0.688; in the data set on biotinyl-Leu-oxazolone it was 0.557; in the data set on biotinyl-Val-oxazolone it was 0.715; with biotinyl-Met-oxazolone, 0.539; in the data set with biotinyl-Phe-oxazolone, 1.26; in the data set on biotinyl-Ile-oxazolone, 0.598.
Consider “AUUCACCUAGCUCAUCGUGUG [Fam2.2 aminoacylation ribozyme variant]”, for which the self-aminoacylation in the data set on biotinyl-Trp-oxazolone was determined as 0.512; in the data set with biotinyl-Leu-oxazolone, 0.769; in the data set with biotinyl-Val-oxazolone, 0.698; in the data set with biotinyl-Met-oxazolone, 0.74; with biotinyl-Phe-oxazolone it was 0.582; in the data set with biotinyl-Ile-oxazolone it was 0.587.
Regarding “AUUCACGUAGGUCAUUGGGUG [Fam2.2 aminoacylation ribozyme variant]”, the self-aminoacylation in the data set on biotinyl-Trp-oxazolone turned out to be 4; with biotinyl-Leu-oxazolone it was 5.11; in the data set with biotinyl-Val-oxazolone, 4; in the data set with biotinyl-Met-oxazolone, 4.43; in the data set with biotinyl-Phe-oxazolone, 25.2; in the data set with biotinyl-Ile-oxazolone, 3.18.
Regarding “CUAUUUCAAACAAUUGGUCUG [Fam1A.1 aminoacylation ribozyme variant]”, the self-aminoacylation worked out at 0.736 with biotinyl-Trp-oxazolone; 0.929 with biotinyl-Leu-oxazolone; 0.873 in the data set with biotinyl-Val-oxazolone; 0.994 with biotinyl-Met-oxazolone; 0.87 in the data set with biotinyl-Phe-oxazolone; 1.01 with biotinyl-Ile-oxazolone.
In the case of “AAGUUUGAUAAUAGUGGCAAG [Fam3.1 aminoacylation ribozyme variant]”, the self-aminoacylation in the data set on biotinyl-Trp-oxazolone was determined as 0.405; in the data set on biotinyl-Leu-oxazolone, 0.423; in the data set on biotinyl-Val-oxazolone, 0.5; in the data set on biotinyl-Met-oxazolone it was 0.396; in the data set with biotinyl-Phe-oxazolone, 0.547; in the data set with biotinyl-Ile-oxazolone, 0.559.
On to “ACGUUUGCUAAUAUUCGCAAG [Fam3.1 aminoacylation ribozyme variant]”, for which the self-aminoacylation was 1.67 in the data set on biotinyl-Trp-oxazolone; 1.38 with biotinyl-Leu-oxazolone; 1.47 in the data set on biotinyl-Val-oxazolone; 1.29 with biotinyl-Met-oxazolone; 1.17 in the data set with biotinyl-Phe-oxazolone; 1.57 with biotinyl-Ile-oxazolone.
As for “CUACUUCCAACAAUUGGUCUG [Fam1A.1 aminoacylation ribozyme variant]”, the self-aminoacylation in the data set with biotinyl-Trp-oxazolone turned out to be 0.536; in the data set on biotinyl-Leu-oxazolone it was 0.776; in the data set on biotinyl-Val-oxazolone, 0.839; in the data set on biotinyl-Met-oxazolone it was 0.718; in the data set with biotinyl-Phe-oxazolone, 0.55; with biotinyl-Ile-oxazolone, 0.817.
For the sequence “AAGUUUGCUUAUAGUCGGAAG [Fam3.1 aminoacylation ribozyme variant]”, the self-aminoacylation in the data set with biotinyl-Trp-oxazolone was 1.14; with biotinyl-Leu-oxazolone, 0.751; in the data set with biotinyl-Val-oxazolone, 0.725; in the data set with biotinyl-Met-oxazolone, 0.828; with biotinyl-Phe-oxazolone, 1.44; in the data set with biotinyl-Ile-oxazolone, 0.812.
